Among the data in the supplement of paper PMC7580552 are biofilm formation values, retold here.

Where a name gives a salt, the structure may show the parent alone. The list shows a part of the results. Part of the spread comes from offsets between plates or batches.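 The strain is a K-12 laboratory model grown without shaking in 96-well plates, and biofilm is the crystal violet stain retained on the wells, read as absorbance. Drugs were picked as candidate specific biofilm blockers when they cut staining strongly but slowed free-floating growth by less than 70%.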

This assay concerns Escherichia coli W3110. Put plainly: biofilm formation (crystal violet staining) relative to untreated control; higher = more biofilm. The note with it: 10 µM; 20-24 h; 30 °C; TB.
In turn, `C[N+]1(C)CCC(OC(=O)C(O)(c2ccccc2)C2CCCC2)C1` (configuration not stated) [Glycopyrrolate] returned a biofilm formation of 71%. The result for `Clc1ccc(CCC(Cn2ccnc2)Sc2c(Cl)cccc2Cl)cc1` (configuration not stated) [Butoconazole nitrate] reads 60%; that for `N#Cc1ccc(C(c2ccc(C#N)cc2)n2cncn2)cc1` [Letrozole], 71%; that for `C[C@@H]1C[C@H]2[C@@H]3C[C@H](F)C4=CC(=O)C=C[C@]4(C)[C@@]3(F)[C@@H](O)C[C@]2(C)[C@@]1(O)C(=O)CO` [Flumethasone], 75%. The figure for `O=C(O)Cc1ccc(-c2ccccc2)cc1` [Felbinac] is 122%; for `O=C(O)c1cn(-c2ccc(F)cc2)c2cc(N3CCNCC3)c(F)cc2c1=O` [Sarafloxacin] it is 16%; for `COc1cc2nc(N3CCN(C(=O)C4CCCO4)CC3)nc(N)c2cc1OC` (configuration not stated) [Terazosin hydrochloride] it is 74%. As to `Nc1ccc(S(=O)(=O)Nc2ccc(Cl)nn2)cc1` [Sulfachloropyridazine], the biofilm formation was 31%.

`CN(C)CCCOc1nn(Cc2ccccc2)c2ccccc12` [Benzydamine hydrochloride] gave a biofilm formation of 56%.

The compound `C#C[C@]1(O)CC[C@H]2[C@@H]3[C@H](C)CC4=C(CCC(=O)C4)[C@H]3CC[C@@]21C` [Tibolone] came in with a biofilm formation of 63%.

`CC(=O)OCC(=O)[C@@]1(O)CC[C@H]2[C@@H]3CCC4=CC(=O)C=C[C@]4(C)[C@@]3(F)[C@@H](O)C[C@@]21C` [Isoflupredone acetate] had a biofilm formation of 62%.

On to `COc1cc(C(=O)N2CCOCC2)cc(OC)c1OC` [Trimetozine], for which the biofilm formation was 59%.

In turn, `CC(=O)Oc1cc(C(C)C)c(OCCN(C)C)cc1C` [Moxisylyte hydrochoride] displayed a biofilm formation of 75%. Turning to `CC(c1cc2ccccc2s1)N(O)C(N)=O` (configuration not stated) [Zileuton], the biofilm formation came to 69%. The result for `COc1cc(C)c(/C=C/C(C)=C/C=C/C(C)=C/C(=O)O)c(C)c1C` [Acitretin] reads 57%. As to `CC(C)OC(=O)CCC/C=C\C[C@@H]1[C@@H](CC[C@@H](O)CCc2ccccc2)[C@H](O)C[C@@H]1O` [Latanoprost], the biofilm formation worked out at 72%. In turn, `C[N+]1(C)CCC(=C(c2ccccc2)c2ccccc2)CC1` [Diphemanil methylsulfate] had a biofilm formation of 91%. The figure for `NS(=O)(=O)c1cc2c(cc1Cl)NCNS2(=O)=O` [Hydrochlorothiazide] is 69%; for `CN(C)CCc1c[nH]c2ccc(C[C@H]3COC(=O)N3)cc12` [Zolmitriptan] it is 60%; for `CN(C)CCC=C1c2ccccc2C=Cc2ccccc21` [Cyclobenzaprine hydrochloride] it is 74%.

On to `O=c1[nH]c(=O)n([C@H]2C[C@H](O)[C@@H](CO)O2)cc1F` [Floxuridine], for which the biofilm formation came to 72%.

`CNNCc1ccc(C(=O)NC(C)C)cc1` [Procarbazine hydrochloride] registered a biofilm formation of 98%.

On to `CCn1cc(C(=O)O)c(=O)c2cc(F)c(N3CCNC(C)C3)c(F)c21` (configuration not stated) [Lomefloxacin hydrochloride], for which the biofilm formation stood at 16%.

`CS(=O)(=O)Nc1ccc([N+](=O)[O-])cc1Oc1ccccc1` [Nimesulide] yielded a biofilm formation of 71%. As to `COc1cc(C)nc(-n2nc(C)cc2OC)n1` [Epirizole], the biofilm formation is 68%.

With `CNC(=C[N+](=O)[O-])NCCSCc1csc(CN(C)C)n1` [Nizatidine], the biofilm formation is 64%.

Turning to `CC(C)CN(C[C@@H](O)[C@H](Cc1ccccc1)NC(=O)O[C@H]1CCOC1)S(=O)(=O)c1ccc(N)cc1` [Amprenavir], the biofilm formation was 95%.

`C[C@]12C=CC(=O)C=C1CC[C@@H]1[C@@H]2C(=O)C[C@@]2(C)[C@H]1CC[C@]2(O)C(=O)CO` [Prednisone] had a biofilm formation of 94%. The figure for `C[C@@H]1CN(c2c(F)c(N)c3c(=O)c(C(=O)O)cn(C4CC4)c3c2F)C[C@H](C)N1` [Sparfloxacin] is 9%; for `CCn1cc(C(=O)O)c(=O)c2cc(F)c(N3CCN(C)CC3)cc21` [Pefloxacine] it is 2%; for `CCC(=O)[C@@]1(C)[C@H](C)C[C@H]2[C@@H]3CCC4=CC(=O)C=C[C@]4(C)[C@H]3[C@@H](O)C[C@@]21C` [Rimexolone] it is 107%. In turn, `CC(=O)Nc1c(I)c(NC(C)=O)c(I)c(C(=O)O)c1I` [Diatrizoic acid dihydrate] came in with a biofilm formation of 59%. The figure for `CCc1cc(C(N)=S)ccn1` [Ethionamide] is 63%; for `CN(N=O)C(=O)N[C@@H](C=O)[C@@H](O)[C@H](O)[C@H](O)CO` [Streptozotocin] it is 71%; for `CN1CCN(C(c2ccccc2)c2ccc(Cl)cc2)CC1` (configuration not stated) [Chlorcyclizine hydrochloride] it is 71%.

The compound `O=C(N/N=C/c1ccc([N+](=O)[O-])o1)c1ccc(O)cc1` [Nifuroxazide] returned a biofilm formation of 90%. The figure for `Cc1ccc(/C(=C\CN2CCCC2)c2ccccn2)cc1` [Triprolidine hydrochloride] is 65%; for `CC(C)(O/N=C(\C(=O)N[C@@H]1C(=O)N2C(C(=O)[O-])=C(C[n+]3ccccc3)CS[C@H]12)c1csc(N)n1)C(=O)O` [Ceftazidime pentahydrate] it is 1%; for `Cc1c(Cl)cccc1Nc1ncccc1C(=O)O` [Clonixin Lysinate] it is 76%.

`CNCCC=C1c2ccccc2CCc2ccccc21` [Nortriptyline hydrochloride]: the biofilm formation is 47%.

In turn, `C[C@H]1[C@H](NC(=O)/C(=N\OC(C)(C)C(=O)O)c2csc(N)n2)C(=O)N1S(=O)(=O)O` [Aztreonam] registered a biofilm formation of 9%.

As to `CCc1c2c(nc3ccc(OC(=O)N4CCC(N5CCCCC5)CC4)cc13)-c1cc3c(c(=O)n1C2)COC(=O)[C@]3(O)CC` [Irinotecan hydrochloride trihydrate], the biofilm formation came out at 52%. With `COC(=O)[C@H]1[C@H]2C[C@@H]3c4[nH]c5cc(OC)ccc5c4CCN3C[C@H]2C[C@@H](OC(=O)c2cc(OC)c(OC)c(OC)c2)[C@@H]1OC` [Reserpine], the biofilm formation is 77%.

Consider `CNC(=C[N+](=O)[O-])NCCSCc1ccc(CN(C)C)o1` [Ranitidine hydrochloride], for which the biofilm formation came to 81%. As to `CC(C)C[C@H](NC(=O)[C@@H](O)[C@H](N)Cc1ccccc1)C(=O)O` [Ubenimex], the biofilm formation was 54%.

`CCOC(=O)Nc1ccc2c(c1)N(C(=O)CCN1CCOCC1)c1ccccc1S2` [Moricizine hydrochloride]: the biofilm formation came out at 93%.

As to `C#C[C@]1(O)CC[C@H]2[C@@H]3CCc4cc(OC)ccc4[C@H]3CC[C@@]21C` [Ethynylestradiol 3-methyl ether], the biofilm formation worked out at 60%.
